Results are given in words; binding and its absence hold for the method and conditions named. Binding seen in cells or lysates may run through a third protein. A result given as binding can be weak or reduced; the word gives no strength. Where a sequence is shown, tags or fusion partners need not be part of it.

This assay has as its target TaTDRL-nEYFP (full-length TaTDRL with the N-terminal part of enhanced YFP) (wheat (Triticum aestivum L.)). The assay can be described thus: split reporter; BiFC: nEYFP and cEYFP fusions, Agrobacterium cells mixed 1:1 and infiltrated into tobacco leaves; confocal microscopy; signal in the nucleus.

B1: AtPIF1-cEYFP (full-length AtPIF1 with the C-terminal part of enhanced YFP) (protein, UniProt Q8GZM7 1-478)
chain: MHHFVPDFDTDDDYVNNHNSSLNHLPRKSITTMGEDDDLMELLWQNGQVVVQNQRLHTKKPSSSPPKLLPSMDPQQQPSSDQNLFIQEDEMTSWLHYPLRDDDFCSDLLFSAAPTATATATVSQVTAARPPVSSTNESRPPVRNFMNFSRLRGDFNNGRGGESGPLLSKAVVRESTQVSPSATPSAAASESGLTRRTDGTDSSAVAGGGAYNRKGKAVAMTAPAIEITGTSSSVVSKSEIEPEKTNVDDRKRKEREATTTDETESRSEETKQARVSTTSTKRSRAAEVHNLSERKRRDRINERMKALQELIPRCNKSDKASMLDEAIEYMKSLQLQIQMMSMGCGMMPMMYPGMQQYMPHMAMGMGMNQPIPPPSFMPFPNMLAAQRPLPTQTHMAGSGPQYPVHASDPSRVFVPNQQYDPTSGQPQYPAGYTDPYQQFRGLHPTQPPQFQNQATSYPSSSRVSSSKESEDHGNHTTG
For B1, the binding result was “binds”.
